Taken from: PubChem BioAssay AID624150 (Cancer Research UK Cambridge, 2012)
Assay: 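Effect of silencing chromatin genes on per-cell differentiation marker amount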 (primary screen). System: primary human epidermal keratinocytes. Reagents: siRNA pool against human genes, 1-2 µM siRNA in 20 µl nucleofection. Time to read-out: 72 h after transfection plus 48 h differentiation (about 5 days). Challenge: five arms for 48 h: vehicle, AG1478 10 µM, BMP2/7 200 ng/ml, both together, or 10% serum. Detection: 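Per-cell amount of a differentiation marker read by infrared scanning of the plate, given as a z-score within each plate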. Scale: z-score, vehicle: higher = more differentiation marker per cell.
The whole screen tested 331 reagents; below is a random part of them. 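Each arm had three replicate z-scores, but only the first replicate is printed; higher values mean more differentiation marker per cell.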 Further read-outs or replicates are left out here.

{"target gene":"ATF7IP2","z-score, vehicle":0.412}
{"target gene":"CHD7","z-score, vehicle":-0.413}
{"target gene":"MLLT10","z-score, vehicle":-0.743}
{"target gene":"KDM8","z-score, vehicle":-0.121}
{"target gene":"MBD6","z-score, vehicle":-1.3}
{"target gene":"TRIM24","z-score, vehicle":0.189}
{"target gene":"CHD4","z-score, vehicle":-2.09}
{"target gene":"UHRF1","z-score, vehicle":2.11}
{"target gene":"TDRD12","z-score, vehicle":0.516}
{"target gene":"KDM7A","z-score, vehicle":1.89}
{"target gene":"TAF1","z-score, vehicle":-0.235}
{"target gene":"PHIP","z-score, vehicle":-1.1}
{"target gene":"UTY","z-score, vehicle":-0.25}
{"target gene":"SMYD4","z-score, vehicle":0.585}
{"target gene":"BAZ1B","z-score, vehicle":0.0755}
{"target gene":"PRDM12","z-score, vehicle":-0.241}
{"target gene":"INO80","z-score, vehicle":-1.27}
{"target gene":"BRD9","z-score, vehicle":-0.495}
{"target gene":"TDRD9","z-score, vehicle":0.865}
{"target gene":"TP53BP1","z-score, vehicle":-0.415}
{"target gene":"CREBBP","z-score, vehicle":-1.18}
{"target gene":"KDM6A","z-score, vehicle":0.349}
{"target gene":"SMARCA2","z-score, vehicle":-0.0498}
{"target gene":"ING2","z-score, vehicle":-0.141}
{"target gene":"JMJD6","z-score, vehicle":-1.31}
{"target gene":"EZH1","z-score, vehicle":-0.51}
{"target gene":"LIN9","z-score, vehicle":-1.28}
{"target gene":"PRDM11","z-score, vehicle":-1.51}

Taken from above.
Value of KDM7A in “z-score, vehicle”: 1.89
For “z-score, vehicle”, UHRF1 is entered as 2.11
Result for KDM8 under “z-score, vehicle”: -0.121
Under “z-score, vehicle”, SMARCA2 reads -0.0498
TDRD9, z-score, vehicle → 0.865
